Test results: patent US20250367290A1, “ENGINEERED STEM CELLS AND USES THEREOF” (Umoja Biopharma, Inc., priority 2022, published 2025)
For at least one compound, name, drawing or mass did not settle the structure.

Key:
[1] = tested on: hematopoietic progenitors (HPs); assay: Differentiation of iPSCs to hematopoietic progenitors in the presence of rapamycin; format: cell-based, human; details: parental wildtype iPSCs
[2] = tested on: hematopoietic progenitors (CD34+/CD43+/CD45+); assay: HP differentiation phase: rapamycin requirement; format: cell-based; details: dropped on day 0, 3, or 10, vs control
Protocol: RACR iPSCs (edited B2M-EF1a-RACR and knocked out for FKBP12) were cultured in media, as described in Example 9. At day 0-2, embryoid bodies (EBs) were generated from a single cell suspension of iPSCs in STEMdiff APEL 2 Medium (STEMCELL Technologies) supplemented with BMP4, FGF2, VEGF, Y27632, and +/− rapalog (RL; AP21967) or +/− rapamycin (RM). EBs were formed using plates comprising aggregates of microwells (e.g. Aggrewell™ 800 plates) at 500 iPSC/EB or 1000 iPSC/EB, as described in Example 9 and shown in FIG. 34. As shown in FIG. 35A-B, higher iPSC confluency at the start of differentiation contributes to a higher HP yield. Further, a range of 200-250 iPSC/EBs seeded in microwells is optimal to achieve the highest HP yield on day 15 (FIG. 35C).
The differentiating EBs were moved to non-tissue culture treated 6-well plates (Corning) at day 6 and fresh HP Medium was added. Every 3 days from days 3-15, half of the media was replaced with HP Medium.

## CO[C@H]1C[C@@H]2CC[C@@H](C)[C@@](O)(O2)C(=O)C(=O)N2CCCC[C@H]2C(=O)O[C@H]([C@H](C)C[C@@H]2CC[C@@H](O)[C@H](OC)C2)CC(=O)[C@H](C)/C=C(\C)[C@@H](O)[C@@H](OC)C(=O)[C@H](C)C[C@H](C)/C=C/C=C/C=C/1C [rapamycin]
[1]
  HP differentiation: fully inhibits HP differentiation
[2]
  HP yield on dropping rapamycin: drastically reduced HP yield
